Experimental data published in the supplement of paper PMC12823440, “Inhibitors supercharge kinase turnover through native proteolytic circuits” (Nature, 2025).
Counter-ions that a name gives are not always drawn. This is one part of the list. The calls rarely recur for the same compound in another form.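 Kinases, fused to nanoluciferase, were expressed in K562 cells; luminescence was measured every 4 h from 2 to 18 h as percent of control (DMSO = 100%, positive control = 0%). A time point is decreased if signal falls significantly (2 sigma). Hits were called by the authors by a rule that is not shown; the count of time points alone does not decide it.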

Amino acid sequences for entries named in this document (tags omitted). A change or cut given only in a name is not applied to a line headed by its entry.
UniProt P00519, whole entry: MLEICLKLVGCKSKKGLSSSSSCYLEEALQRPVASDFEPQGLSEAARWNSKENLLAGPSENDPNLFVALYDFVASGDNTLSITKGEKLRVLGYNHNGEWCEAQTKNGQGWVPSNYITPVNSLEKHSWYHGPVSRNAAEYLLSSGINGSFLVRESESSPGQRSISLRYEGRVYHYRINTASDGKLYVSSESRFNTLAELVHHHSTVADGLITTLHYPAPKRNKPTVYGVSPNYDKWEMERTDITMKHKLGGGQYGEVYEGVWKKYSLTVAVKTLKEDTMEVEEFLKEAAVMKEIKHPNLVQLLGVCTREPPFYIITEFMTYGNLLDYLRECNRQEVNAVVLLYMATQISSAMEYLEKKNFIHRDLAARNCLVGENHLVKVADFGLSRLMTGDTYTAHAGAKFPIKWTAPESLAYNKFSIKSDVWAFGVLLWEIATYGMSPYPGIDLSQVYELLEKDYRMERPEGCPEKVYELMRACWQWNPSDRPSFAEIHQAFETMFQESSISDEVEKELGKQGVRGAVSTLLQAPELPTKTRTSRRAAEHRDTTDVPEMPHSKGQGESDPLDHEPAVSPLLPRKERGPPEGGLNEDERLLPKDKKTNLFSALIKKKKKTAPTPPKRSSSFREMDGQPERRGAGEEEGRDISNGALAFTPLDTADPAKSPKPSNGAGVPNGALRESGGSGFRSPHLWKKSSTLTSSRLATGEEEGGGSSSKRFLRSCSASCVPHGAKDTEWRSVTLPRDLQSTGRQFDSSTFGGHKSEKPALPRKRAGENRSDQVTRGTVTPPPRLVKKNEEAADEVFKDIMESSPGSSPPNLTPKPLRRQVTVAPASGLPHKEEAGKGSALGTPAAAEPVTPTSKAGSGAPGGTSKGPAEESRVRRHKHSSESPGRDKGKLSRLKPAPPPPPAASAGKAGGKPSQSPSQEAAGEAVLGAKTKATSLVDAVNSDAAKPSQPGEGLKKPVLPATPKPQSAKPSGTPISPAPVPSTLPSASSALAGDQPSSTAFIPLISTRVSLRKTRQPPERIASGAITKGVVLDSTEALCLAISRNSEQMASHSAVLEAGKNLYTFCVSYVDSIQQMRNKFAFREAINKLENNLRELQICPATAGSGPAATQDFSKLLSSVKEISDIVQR
UniProt P31749: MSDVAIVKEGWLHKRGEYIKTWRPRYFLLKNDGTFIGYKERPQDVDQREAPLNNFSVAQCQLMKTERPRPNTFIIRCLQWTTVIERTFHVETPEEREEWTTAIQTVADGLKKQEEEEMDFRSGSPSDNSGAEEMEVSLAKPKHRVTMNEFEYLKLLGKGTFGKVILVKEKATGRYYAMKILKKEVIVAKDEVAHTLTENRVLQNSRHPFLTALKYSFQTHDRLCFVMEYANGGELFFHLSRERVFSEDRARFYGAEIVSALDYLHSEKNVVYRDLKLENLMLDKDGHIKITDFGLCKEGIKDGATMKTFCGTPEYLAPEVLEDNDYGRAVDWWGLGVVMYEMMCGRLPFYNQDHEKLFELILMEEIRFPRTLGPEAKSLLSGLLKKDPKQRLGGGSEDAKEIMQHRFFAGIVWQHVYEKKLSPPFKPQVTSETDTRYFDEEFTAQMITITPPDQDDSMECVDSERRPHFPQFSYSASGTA
UniProt Q9UM73: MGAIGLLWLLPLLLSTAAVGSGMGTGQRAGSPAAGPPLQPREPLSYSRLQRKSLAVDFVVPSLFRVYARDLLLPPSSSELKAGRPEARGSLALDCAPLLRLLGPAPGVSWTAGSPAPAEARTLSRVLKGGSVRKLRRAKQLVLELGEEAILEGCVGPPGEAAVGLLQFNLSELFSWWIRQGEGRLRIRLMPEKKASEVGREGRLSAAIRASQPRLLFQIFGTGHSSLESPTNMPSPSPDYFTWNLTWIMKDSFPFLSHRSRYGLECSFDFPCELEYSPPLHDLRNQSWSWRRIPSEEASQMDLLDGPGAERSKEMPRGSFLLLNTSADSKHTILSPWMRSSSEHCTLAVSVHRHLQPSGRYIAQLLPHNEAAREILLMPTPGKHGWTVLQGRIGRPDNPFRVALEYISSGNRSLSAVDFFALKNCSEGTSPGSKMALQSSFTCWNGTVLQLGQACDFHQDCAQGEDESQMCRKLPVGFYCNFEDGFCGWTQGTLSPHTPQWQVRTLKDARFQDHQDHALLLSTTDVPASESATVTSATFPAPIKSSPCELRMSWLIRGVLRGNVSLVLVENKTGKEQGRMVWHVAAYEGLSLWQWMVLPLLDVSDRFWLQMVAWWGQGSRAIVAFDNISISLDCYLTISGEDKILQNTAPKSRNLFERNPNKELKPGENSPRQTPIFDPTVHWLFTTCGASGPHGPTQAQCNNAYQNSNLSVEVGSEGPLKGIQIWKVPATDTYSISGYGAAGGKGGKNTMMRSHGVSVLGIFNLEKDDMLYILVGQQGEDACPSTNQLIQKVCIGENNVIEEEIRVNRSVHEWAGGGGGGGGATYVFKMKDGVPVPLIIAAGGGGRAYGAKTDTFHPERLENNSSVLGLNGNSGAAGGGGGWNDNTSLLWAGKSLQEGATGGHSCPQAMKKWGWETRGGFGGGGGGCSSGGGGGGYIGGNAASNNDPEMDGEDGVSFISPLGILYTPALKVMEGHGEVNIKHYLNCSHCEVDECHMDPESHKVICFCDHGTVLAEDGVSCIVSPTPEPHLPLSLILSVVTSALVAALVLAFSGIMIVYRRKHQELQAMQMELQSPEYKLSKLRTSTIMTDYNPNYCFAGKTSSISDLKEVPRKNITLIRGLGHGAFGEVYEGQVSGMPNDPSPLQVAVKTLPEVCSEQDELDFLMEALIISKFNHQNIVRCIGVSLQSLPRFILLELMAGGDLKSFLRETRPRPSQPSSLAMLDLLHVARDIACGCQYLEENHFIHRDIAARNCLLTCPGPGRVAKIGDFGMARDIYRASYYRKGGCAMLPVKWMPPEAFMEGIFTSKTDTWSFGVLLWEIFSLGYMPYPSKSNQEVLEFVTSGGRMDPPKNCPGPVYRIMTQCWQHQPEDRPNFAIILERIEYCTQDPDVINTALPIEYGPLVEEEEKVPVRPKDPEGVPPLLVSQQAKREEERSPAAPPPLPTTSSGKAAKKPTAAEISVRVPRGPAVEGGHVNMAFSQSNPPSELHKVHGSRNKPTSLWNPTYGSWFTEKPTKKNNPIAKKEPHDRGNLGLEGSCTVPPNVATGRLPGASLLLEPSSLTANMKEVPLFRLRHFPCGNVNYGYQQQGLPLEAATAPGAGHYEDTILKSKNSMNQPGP
UniProt P10398: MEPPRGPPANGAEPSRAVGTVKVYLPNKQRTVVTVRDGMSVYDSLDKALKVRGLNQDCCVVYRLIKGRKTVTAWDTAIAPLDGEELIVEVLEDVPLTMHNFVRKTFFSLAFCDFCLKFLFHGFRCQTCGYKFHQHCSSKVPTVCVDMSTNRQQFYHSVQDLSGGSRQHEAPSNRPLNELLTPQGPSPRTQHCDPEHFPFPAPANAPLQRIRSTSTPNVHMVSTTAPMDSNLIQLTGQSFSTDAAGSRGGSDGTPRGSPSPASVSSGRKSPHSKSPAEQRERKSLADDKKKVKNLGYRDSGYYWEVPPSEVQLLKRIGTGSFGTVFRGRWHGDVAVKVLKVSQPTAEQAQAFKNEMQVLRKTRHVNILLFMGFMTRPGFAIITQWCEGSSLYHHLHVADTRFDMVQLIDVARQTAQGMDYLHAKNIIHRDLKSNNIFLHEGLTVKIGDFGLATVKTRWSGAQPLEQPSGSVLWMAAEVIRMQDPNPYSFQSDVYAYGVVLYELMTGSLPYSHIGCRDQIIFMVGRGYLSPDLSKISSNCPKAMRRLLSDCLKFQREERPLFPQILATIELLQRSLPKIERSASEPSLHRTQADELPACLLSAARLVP
UniProt Q96GD4, whole entry: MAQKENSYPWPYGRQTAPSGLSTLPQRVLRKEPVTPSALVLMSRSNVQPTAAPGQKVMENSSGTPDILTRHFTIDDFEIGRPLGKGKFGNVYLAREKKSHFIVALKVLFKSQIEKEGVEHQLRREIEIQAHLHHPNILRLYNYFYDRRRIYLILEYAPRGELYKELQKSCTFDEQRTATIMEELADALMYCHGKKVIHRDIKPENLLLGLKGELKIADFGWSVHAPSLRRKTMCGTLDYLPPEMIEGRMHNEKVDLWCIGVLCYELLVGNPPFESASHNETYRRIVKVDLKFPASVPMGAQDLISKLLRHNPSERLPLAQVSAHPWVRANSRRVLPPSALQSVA
UniProt Q9UQB9: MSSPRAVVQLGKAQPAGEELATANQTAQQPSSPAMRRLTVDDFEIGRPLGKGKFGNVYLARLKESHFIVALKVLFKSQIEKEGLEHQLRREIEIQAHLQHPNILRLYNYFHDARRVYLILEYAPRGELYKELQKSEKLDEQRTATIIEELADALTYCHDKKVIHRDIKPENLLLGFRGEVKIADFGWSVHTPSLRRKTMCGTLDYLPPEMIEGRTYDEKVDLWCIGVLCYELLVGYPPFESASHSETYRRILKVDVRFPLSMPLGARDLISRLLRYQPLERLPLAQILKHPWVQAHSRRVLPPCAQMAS
UniProt P51451: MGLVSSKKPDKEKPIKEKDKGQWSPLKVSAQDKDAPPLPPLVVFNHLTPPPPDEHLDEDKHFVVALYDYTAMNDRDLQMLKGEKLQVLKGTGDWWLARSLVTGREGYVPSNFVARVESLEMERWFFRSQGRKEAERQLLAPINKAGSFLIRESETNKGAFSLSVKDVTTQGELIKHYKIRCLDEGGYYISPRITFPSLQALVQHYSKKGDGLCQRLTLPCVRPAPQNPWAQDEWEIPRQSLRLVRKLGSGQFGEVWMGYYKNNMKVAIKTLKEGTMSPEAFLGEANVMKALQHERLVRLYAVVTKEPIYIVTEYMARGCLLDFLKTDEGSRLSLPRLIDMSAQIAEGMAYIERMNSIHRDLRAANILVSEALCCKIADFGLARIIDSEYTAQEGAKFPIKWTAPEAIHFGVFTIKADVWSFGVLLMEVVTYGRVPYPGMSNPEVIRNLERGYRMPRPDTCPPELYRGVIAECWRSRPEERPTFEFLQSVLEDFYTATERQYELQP
UniProt P51813: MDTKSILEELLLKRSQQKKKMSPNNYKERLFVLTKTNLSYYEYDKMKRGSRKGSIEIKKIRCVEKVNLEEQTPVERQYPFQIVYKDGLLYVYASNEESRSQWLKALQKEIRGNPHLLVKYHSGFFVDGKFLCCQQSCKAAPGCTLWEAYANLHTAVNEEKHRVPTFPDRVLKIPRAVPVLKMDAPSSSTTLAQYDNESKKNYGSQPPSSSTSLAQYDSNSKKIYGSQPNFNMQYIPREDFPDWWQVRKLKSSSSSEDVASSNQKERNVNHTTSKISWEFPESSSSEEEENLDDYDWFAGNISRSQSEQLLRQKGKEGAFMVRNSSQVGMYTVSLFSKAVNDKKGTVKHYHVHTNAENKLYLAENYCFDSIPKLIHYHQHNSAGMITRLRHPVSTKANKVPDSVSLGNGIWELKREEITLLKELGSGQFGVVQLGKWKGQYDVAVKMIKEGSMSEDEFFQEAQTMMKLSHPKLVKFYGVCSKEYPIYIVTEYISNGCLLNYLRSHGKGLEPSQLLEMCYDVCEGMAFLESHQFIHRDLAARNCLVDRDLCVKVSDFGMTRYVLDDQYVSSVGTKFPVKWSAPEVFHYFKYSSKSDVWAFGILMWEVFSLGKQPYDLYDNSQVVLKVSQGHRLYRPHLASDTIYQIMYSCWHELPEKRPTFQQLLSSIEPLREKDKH
UniProt P15056, whole entry, looked up: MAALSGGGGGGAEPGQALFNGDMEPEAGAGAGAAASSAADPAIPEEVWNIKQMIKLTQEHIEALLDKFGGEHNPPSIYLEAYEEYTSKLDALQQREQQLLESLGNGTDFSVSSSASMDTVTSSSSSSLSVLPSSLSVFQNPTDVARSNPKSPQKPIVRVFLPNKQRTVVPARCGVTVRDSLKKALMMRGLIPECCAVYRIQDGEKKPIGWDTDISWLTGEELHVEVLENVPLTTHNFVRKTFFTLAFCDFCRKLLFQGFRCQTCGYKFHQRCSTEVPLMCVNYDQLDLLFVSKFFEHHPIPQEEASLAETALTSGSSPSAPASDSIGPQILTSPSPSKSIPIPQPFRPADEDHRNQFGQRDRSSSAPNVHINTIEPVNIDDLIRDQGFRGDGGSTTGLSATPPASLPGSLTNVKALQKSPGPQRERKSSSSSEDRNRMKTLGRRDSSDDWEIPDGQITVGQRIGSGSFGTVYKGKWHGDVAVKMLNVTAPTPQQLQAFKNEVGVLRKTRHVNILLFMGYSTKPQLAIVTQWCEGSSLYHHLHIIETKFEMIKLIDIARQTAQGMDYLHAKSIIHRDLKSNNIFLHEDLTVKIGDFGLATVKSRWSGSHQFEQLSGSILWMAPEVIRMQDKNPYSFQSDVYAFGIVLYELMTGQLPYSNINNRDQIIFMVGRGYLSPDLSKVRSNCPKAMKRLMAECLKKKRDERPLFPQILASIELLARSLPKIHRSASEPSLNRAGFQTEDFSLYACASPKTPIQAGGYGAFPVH

What was measured:
Assay in all cases: kinase-Nluc reporter destabilization hit call (1 = scored as downregulated) (binary); higher = compound decreases kinase abundance
Details in all cases: K562, 2-18 h
ABL1 = ABL1 (UniProt P00519)
AKT1 = AKT1 (UniProt P31749)
ALK = ALK (UniProt Q9UM73)
ARAF = ARAF (UniProt P10398)
AURKA = AURKA (UniProt O14965)
AURKB = AURKB (UniProt Q96GD4)
AURKC = AURKC (UniProt Q9UQB9)
BLK = BLK (UniProt P51451)
BMX = BMX (UniProt P51813)
BRAF = BRAF (UniProt P15056)

Measured: kinase-Nluc reporter destabilization hit call

COc1cc2nccc(Nc3cc(OC)c(OC)c(OC)c3)c2cc1OC [GAK inhibitor 49 (hydrochloride)]
inactive: ABL1; 10 µM 0 | AKT1; 10 µM 0 | ALK; 10 µM 0 | ARAF; 10 µM 0 | AURKA; 10 µM 0 | AURKB; 10 µM 0 | AURKC; 10 µM 0 | BLK; 10 µM 0 | BMX; 10 µM 0 | BRAF; 10 µM 0

C/C=C1\C(=O)C[C@H]2[C@@H]3CCC4=CC(=O)CC[C@]4(C)[C@H]3CC[C@]12C [Guggulsterone]
inactive: ABL1; 10 µM 0 | AKT1; 10 µM 0 | ALK; 10 µM 0 | ARAF; 10 µM 0 | AURKA; 10 µM 0 | AURKB; 10 µM 0 | AURKC; 10 µM 0 | BLK; 10 µM 0 | BMX; 10 µM 0 | BRAF; 10 µM 0

C=CC(=O)Nc1cc(Nc2ncc(C(=O)OC(C)C)c(-c3cn(C)c4ccccc34)n2)c(OC)cc1N(C)CCN(C)C [Mobocertinib (succinate)]
inactive: ABL1; 10 µM 0 | AKT1; 10 µM 0 | ALK; 10 µM 0 | ARAF; 10 µM 0 | AURKA; 10 µM 0 | AURKB; 10 µM 0 | AURKC; 10 µM 0 | BLK; 10 µM 0 | BMX; 10 µM 0 | BRAF; 10 µM 0

Cc1cccc(/C=N/Nc2cc(N3CCOCC3)nc(OCCc3ccccn3)n2)c1 [Apilimod]
inactive: ABL1; 2.5 µM 0 | AKT1; 2.5 µM 0 | ALK; 2.5 µM 0 | ARAF; 2.5 µM 0 | AURKA; 2.5 µM 0 | AURKB; 2.5 µM 0 | AURKC; 2.5 µM 0 | BLK; 2.5 µM 0 | BMX; 2.5 µM 0 | BRAF; 2.5 µM 0

Oc1cccc(-c2nc(N3CCOCC3)c3oc4ncccc4c3n2)c1 [PI-103 (Hydrochloride)]
inactive: ABL1; 2.5 µM 0 | AKT1; 2.5 µM 0 | ALK; 2.5 µM 0 | ARAF; 2.5 µM 0 | AURKA; 2.5 µM 0 | AURKB; 2.5 µM 0 | AURKC; 2.5 µM 0 | BLK; 2.5 µM 0 | BMX; 2.5 µM 0 | BRAF; 2.5 µM 0

CNC(=O)c1ccccc1Nc1cc(Nc2ccc(N3CCOCC3)cc2OC)ncc1C(F)(F)F [PND-1186 (hydrochloride)]
inactive: ABL1; 10 µM 0 | AKT1; 10 µM 0 | ALK; 10 µM 0 | ARAF; 10 µM 0 | AURKA; 10 µM 0 | AURKB; 10 µM 0 | AURKC; 10 µM 0 | BLK; 10 µM 0 | BMX; 10 µM 0 | BRAF; 10 µM 0

COc1ccc(S(=O)(=O)Nc2ccccc2CN(C)C/C=C/c2ccc(Cl)cc2)cc1 [KN-92 (phosphate)]
inactive: ABL1; 2.5 µM 0 | AKT1; 2.5 µM 0 | ALK; 2.5 µM 0 | ARAF; 2.5 µM 0 | AURKA; 2.5 µM 0 | AURKB; 2.5 µM 0 | AURKC; 2.5 µM 0 | BLK; 2.5 µM 0 | BMX; 2.5 µM 0 | BRAF; 2.5 µM 0

2 neighbouring entries already listed, for reference:
Oc1cccc(-c2nc(N3CCOCC3)c3oc4ncccc4c3n2)c1 [PI-103 (Hydrochloride)]
inactive: ABL1; 2.5 µM 0 | AKT1; 2.5 µM 0 | ALK; 2.5 µM 0 | ARAF; 2.5 µM 0 | AURKA; 2.5 µM 0 | AURKB; 2.5 µM 0 | AURKC; 2.5 µM 0 | BLK; 2.5 µM 0 | BMX; 2.5 µM 0 | BRAF; 2.5 µM 0

CNC(=O)c1ccccc1Nc1cc(Nc2ccc(N3CCOCC3)cc2OC)ncc1C(F)(F)F [PND-1186 (hydrochloride)]
inactive: ABL1; 10 µM 0 | AKT1; 10 µM 0 | ALK; 10 µM 0 | ARAF; 10 µM 0 | AURKA; 10 µM 0 | AURKB; 10 µM 0 | AURKC; 10 µM 0 | BLK; 10 µM 0 | BMX; 10 µM 0 | BRAF; 10 µM 0

Next records

CCCCCCCCc1ccc(CCC(N)(CO)CO)cc1 [Fingolimod (hydrochloride)]
inactive: ABL1; 2.5 µM 0 | AKT1; 2.5 µM 0 | ALK; 2.5 µM 0 | ARAF; 2.5 µM 0 | AURKA; 2.5 µM 0 | AURKB; 2.5 µM 0 | AURKC; 2.5 µM 0 | BLK; 2.5 µM 0 | BMX; 2.5 µM 0 | BRAF; 2.5 µM 0

COc1ccc2c(c1)C(c1ccc(F)cc1)=C(CN1CCCC1)CO2
inactive: ABL1; 10 µM 0 | AKT1; 10 µM 0 | ALK; 10 µM 0 | ARAF; 10 µM 0 | AURKA; 10 µM 0 | AURKB; 10 µM 0 | AURKC; 10 µM 0 | BLK; 10 µM 0 | BMX; 10 µM 0 | BRAF; 10 µM 0

Cc1cccc(-c2[nH]c(CNc3ccccc3F)nc2-c2ccc3ncnn3c2)n1 [Vactosertib (Hydrochloride)]
inactive: ABL1; 2.5 µM 0 | AKT1; 2.5 µM 0 | ALK; 2.5 µM 0 | ARAF; 2.5 µM 0 | AURKA; 2.5 µM 0 | AURKB; 2.5 µM 0 | AURKC; 2.5 µM 0 | BLK; 2.5 µM 0 | BMX; 2.5 µM 0 | BRAF; 2.5 µM 0

C[C@@H](N)[C@H]1CC[C@H](C(=O)Nc2ccncc2)CC1
inactive: ABL1; 10 µM 0 | AKT1; 10 µM 0 | ALK; 10 µM 0 | ARAF; 10 µM 0 | AURKA; 10 µM 0 | AURKB; 10 µM 0 | AURKC; 10 µM 0 | BLK; 10 µM 0 | BMX; 10 µM 0 | BRAF; 10 µM 0

CNc1ncc2cc(-c3ccc(-c4cccc(C)n4)cc3Cl)c(=O)n(C[C@H]3OC[C@H](N)CO3)c2n1 [G-5555 (hydrochloride)]
inactive: ABL1; 10 µM 0 | AKT1; 10 µM 0 | ALK; 10 µM 0 | ARAF; 10 µM 0 | AURKA; 10 µM 0 | AURKB; 10 µM 0 | AURKC; 10 µM 0 | BLK; 10 µM 0 | BMX; 10 µM 0 | BRAF; 10 µM 0

CCS(=O)(=O)N1CC(CC#N)(n2cc(-c3ncnc4[nH]ccc34)cn2)C1 [Baricitinib]
inactive: ABL1; 10 µM 0 | AKT1; 10 µM 0 | ALK; 10 µM 0 | ARAF; 10 µM 0 | AURKA; 10 µM 0 | AURKB; 10 µM 0 | AURKC; 10 µM 0 | BLK; 10 µM 0 | BMX; 10 µM 0 | BRAF; 10 µM 0

C/C=C1\C(=O)C[C@H]2[C@@H]3CCC4=CC(=O)CC[C@]4(C)[C@H]3CC[C@]12C [(Z)-Guggulsterone]
inactive: ABL1; 10 µM 0 | AKT1; 10 µM 0 | ALK; 10 µM 0 | ARAF; 10 µM 0 | AURKA; 10 µM 0 | AURKB; 10 µM 0 | AURKC; 10 µM 0 | BLK; 10 µM 0 | BMX; 10 µM 0 | BRAF; 10 µM 0

N#CCC1(n2cc(-c3ncnc4[nH]ccc34)cn2)CN(C2CCN(C(=O)c3ccnc(C(F)(F)F)c3F)CC2)C1 [Itacitinib adipate]
inactive: ABL1; 10 µM 0 | AKT1; 10 µM 0 | ALK; 10 µM 0 | ARAF; 10 µM 0 | AURKA; 10 µM 0 | AURKB; 10 µM 0 | AURKC; 10 µM 0 | BLK; 10 µM 0 | BMX; 10 µM 0 | BRAF; 10 µM 0
